This assay concerns P388 leukemia ip, CD2F1 mice, survival T/C. The experiment in a line: NCI In Vivo Anticancer Drug Screen. Data for tumor model P388 Leukemia (intraperitoneal) in CD2F1 (CDF1) mice. The settings on record: T/C endpoint: median survival time, higher T/C = longer survival.
The mark [1] stands for this setting: dose: 100.0 mg/kg/injection, schedule: Q04DX003 (ip), vehicle: Klucel (hydroxypropylcellulose) (HPC).
The mark [2] stands for this setting: dose: 200.0 mg/kg/injection, schedule: Q04DX003 (ip), vehicle: Klucel (hydroxypropylcellulose) (HPC).
The mark [3] stands for this setting: dose: 400.0 mg/kg/injection, schedule: Q04DX003 (ip), vehicle: Klucel (hydroxypropylcellulose) (HPC).

The list is a part of this screen's results and no random one: it gathers some chemical classes. Not every dose and run of a compound is shown. T/C is the treated group as % of the vehicle group. For survival time, the PubChem record calls one and a half times the control and up active, and a quarter to a half above the control has no call in these data; cut-offs in other NCI protocols can differ. Schedule codes are those of the source, taken here to give the interval after Q, in days (D) or hours (H), and the number of doses after X. Some entries were tested several times; their values stand side by side, smallest first. Some T/C values are marked as having no survivor count here; that says nothing about deaths at the dose.

This passage reports T/C results from PubChem BioAssay AID330 (DTP/NCI, 2004).

As for `O=C1/C(=C/N(CCCl)CCCl)CCc2ccccc21`, the T/C under setting [1] was 103 % of control [survivor count not shown], the T/C under setting [2] was 100 % of control [survivor count not shown] and the T/C under setting [3] is 104 % of control [survivor count not shown].
For `CC12CCC(/C(=C/N(CCCl)CCCl)C1=O)C2(C)C` (stereo unspecified), in that order: 107 % of control [survivor count not shown], 105 % of control [survivor count not shown] and 106 % of control [survivor count not shown].
`BrCCN(CCBr)CCCN(CCBr)CCBr`: the T/C reads like this: (dose: 0.1 mg/kg/injection, schedule: Q01DX009 (ip), vehicle: saline) 90 % of control [survivor count not shown]; (dose: 13.0 micrograms/kg/injection, schedule: Q01DX009 (ip), vehicle: saline) 191 % of control [survivor count not shown]; (dose: 25.0 micrograms/kg/injection, schedule: Q01DX009 (ip), vehicle: saline) 178 % of control [survivor count not shown]; (dose: 50.0 micrograms/kg/injection, schedule: Q01DX009 (ip), vehicle: saline) 143 % of control [survivor count not shown]; (dose: 125.0 micrograms/kg/injection, schedule: Q04DX003 (ip), vehicle: saline with Tween-80) 177 % of control [survivor count not shown]; (dose: 165.0 micrograms/kg/injection, schedule: Q04DX003 (ip), vehicle: saline) 150 % of control [survivor count not shown]. Further, the T/C (dose: 250.0 micrograms/kg/injection, schedule: Q04DX003 (ip), vehicle: saline with Tween-80) is 209 % of control [survivor count not shown]; the T/C (dose: 250.0 micrograms/kg/injection, schedule: Q04DX003 (ip), vehicle: saline) was 145 % of control [survivor count not shown]; the T/C (dose: 375.0 micrograms/kg/injection, schedule: Q04DX003 (ip), vehicle: saline) was 172 % of control [survivor count not shown]; the T/C (dose: 500.0 micrograms/kg/injection, schedule: Q04DX003 (ip), vehicle: saline with Tween-80) is 90 % of control [survivor count not shown]; the T/C (dose: 1000.0 micrograms/kg/injection, schedule: Q01DX009 (ip), vehicle: saline) is 127 % of control [survivor count not shown]; the T/C (dose: 2000.0 micrograms/kg/injection, schedule: Q01DX009 (ip), vehicle: saline) is 145 % of control [survivor count not shown]. Also, the T/C was 148 % of control [survivor count not shown] (dose: 4000.0 micrograms/kg/injection, schedule: Q01DX009 (ip), vehicle: saline) and 120 % of control [survivor count not shown] (dose: 8000.0 micrograms/kg/injection, schedule: Q01DX009 (ip), vehicle: saline).
Take `ClCCN1CCC(C2CCN(CCCl)CC2)CC1`: the T/C is, setting by setting: (dose: 3.12 mg/kg/injection, schedule: Q01DX005 (ip), vehicle: saline) 123 % of control; (dose: 6.25 mg/kg/injection, schedule: Q01DX005 (ip), vehicle: saline) 132 and 145 % of control; (dose: 12.5 mg/kg/injection, schedule: Q01DX005 (ip), vehicle: saline) 159 and 179 % of control.
Take `Nc1ncnc2c1ncn2CCN(CCCl)CCCl`: the T/C is 144 % of control [survivor count not shown] (dose: 0.44 mg/kg/injection, schedule: Q01DX009 (ip), vehicle: saline); 153 % of control [survivor count not shown] (dose: 0.66 mg/kg/injection, schedule: Q01DX009 (ip), vehicle: saline); 185 % of control [survivor count not shown] (dose: 1.0 mg/kg/injection, schedule: Q01DX009 (ip), vehicle: saline); 201 % of control [survivor count not shown] (dose: 1.5 mg/kg/injection, schedule: Q01DX009 (ip), vehicle: saline); 135 % of control [survivor count not shown] (dose: 2.2 mg/kg/injection, schedule: Q04DX003 (ip), vehicle: saline); 150 % of control [survivor count not shown] (dose: 3.3 mg/kg/injection, schedule: Q04DX003 (ip), vehicle: saline). The T/C was 155 % of control [survivor count not shown] (dose: 5.0 mg/kg/injection, schedule: Q04DX003 (ip), vehicle: saline); 204 % of control [survivor count not shown] (dose: 6.25 mg/kg/injection, schedule: Q04DX003 (ip), vehicle: saline); 185 % of control [survivor count not shown] (dose: 7.5 mg/kg/injection, schedule: Q04DX003 (ip), vehicle: saline); 104 % of control [survivor count not shown] (dose: 12.5 mg/kg/injection, schedule: Q04DX003 (ip), vehicle: saline).
Take `OCC#CCN(CCCl)CCCl`: the T/C is, setting by setting: (dose: 0.4 mg/kg/injection, schedule: Q04DX003 (ip), vehicle: saline with Tween-80) 118 % of control [survivor count not shown]; (dose: 0.75 mg/kg/injection, schedule: Q04DX003 (ip), vehicle: saline with Tween-80) 122 % of control [survivor count not shown]; (dose: 0.9 mg/kg/injection, schedule: Q04DX003 (ip), vehicle: saline) 185 % of control [survivor count not shown]; (dose: 1.5 mg/kg/injection, schedule: Q04DX003 (ip), vehicle: saline with Tween-80) 145 % of control [survivor count not shown]; (dose: 1.5 mg/kg/injection, schedule: Q04DX003 (ip), vehicle: saline) 205 % of control [survivor count not shown]; (dose: 2.25 mg/kg/injection, schedule: Q04DX003 (ip), vehicle: saline) 205 % of control [survivor count not shown].
For the molecule `O=C(SCCCl)SC(Cl)C(Cl)Cl` (stereo unspecified), the T/C by setting is: (dose: 100.0 mg/kg/injection, schedule: Q01DX009 (ip), vehicle: saline) 96 % of control; (dose: 200.0 mg/kg/injection, schedule: Q01DX009 (ip), vehicle: saline) 99 % of control.
